Data: article PMC5770787
Results are given in words; binding and its absence hold for the method and conditions named. Binding seen in cells or lysates may run through a third protein. Here binding means that the protein was enriched with, or labelled near, the bait; the list need not be complete. One block for each molecule: values may come before it.

Chains of the proteins cited; added tags and fusions are not shown.
UniProt P51149: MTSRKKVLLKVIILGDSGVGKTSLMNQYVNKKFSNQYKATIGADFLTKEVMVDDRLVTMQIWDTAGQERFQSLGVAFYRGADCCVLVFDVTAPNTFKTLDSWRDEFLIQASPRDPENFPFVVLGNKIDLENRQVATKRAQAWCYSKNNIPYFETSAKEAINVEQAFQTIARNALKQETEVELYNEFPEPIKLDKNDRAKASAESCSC
UniProt Q9UI14: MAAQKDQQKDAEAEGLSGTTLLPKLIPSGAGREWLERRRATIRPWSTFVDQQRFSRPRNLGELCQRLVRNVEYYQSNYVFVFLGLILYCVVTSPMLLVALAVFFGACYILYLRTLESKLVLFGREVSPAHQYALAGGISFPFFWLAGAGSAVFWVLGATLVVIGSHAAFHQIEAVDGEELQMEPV

Target: GFP-RAB7a (human) (UniProt P51149)
Assay: affinity purification with mass spectrometry; GFP-trap of GFP-RAB7 from SILAC-labelled parental HeLa and VPS35 KO cells, two runs with swapped labels; Tris-HCl pH 7.8, 50 mM NaCl, 0.5% Triton X-100, 1 mM MgCl2; Orbitrap, MaxQuant

binding: binds
Molecule: PRA-1 (from UniProt Q9UI14 1-185)

binding: binds
B1: GDI1 (protein, UniProt P31150 1-447)
chain: MDEEYDVIVLGTGLTECILSGIMSVNGKKVLHMDRNPYYGGESSSITPLEELYKRFQLLEGPPESMGRGRDWNVDLIPKFLMANGQLVKMLLYTEVTRYLDFKVVEGSFVYKGGKIYKVPSTETEALASNLMGMFEKRRFRKFLVFVANFDENDPKTFEGVDPQTTSMRDVYRKFDLGQDVIDFTGHALALYRTDDYLDQPCLETVNRIKLYSESLARYGKSPYLYPLYGLGELPQGFARLSAIYGGTYMLNKPVDDIIMENGKVVGVKSEGEVARCKQLICDPSYIPDRVRKAGQVIRIICILSHPIKNTNDANSCQIIIPQNQVNRKSDIYVCMISYAHNVAAQGKYIAIASTTVETTDPEKEVEPALELLEPIDQKFVAISDLYEPIDDGCESQVFCSCSYDATTHFETTCNDIKDIYKRMAGTAFDFENMKRKQNDVFGEAEQ
